According to patent US20060293343A1, “Pyrimidine derivatives” (Asahi Kasei Pharma Corporation, priority 2005, published 2006):

Columns and labels:
[1] = system: rabbit gastric gland cells; assay: Action on gastric acid secretion ability (in vitro), 14C-aminopyrine uptake in gastric gland cells; format: cell-based; details: EC50 of gastric acid secretion ability / IC50 of suppression of TNF-α production
Description: Gastric acid secretion ability (as an index of the side effect) was tested according to the methods by BergLindh and Obrink (Acta Physiol. Scand. 97:401-414, 1976) and Sack and Speney (Am. J. Physiol. 243:G313-G319, 1982).
Gastric gland cells were prepared by collagenase treatment using male rabbit (Japanese white strain, manufactured by Oriental Yeast Co.).
The test compound, ^14C-aminopyrine (1.0 nmol/mL; 0.1 μCi/nmol) and histamine (0.3 to 1.0 μM) were incubated for a given time period, and gastric gland cell pellets obtained after centrifugation and washing were lysed with 100 μL of 1N-KOH. The lysate was filled in a scintillation vial containing a scintillation cocktail (manufactured by Perkin Elmer Co.) to measure the radioactivity. The gastric acid secretion action by the test compound was calculated as EC50, and the ratio of the activity relative to IC50 of suppression of TNF-α production described in Test Example 2 (degree of dissociation A) was determined from the following equation. The larger degree of dissociation A is more preferable. The results in Table 10 represent that secretion of the gastric acid ability(EC50) was lower activity in the compound of the invention, salts thereof or prodrugs thereof as compared with the suppression effect of TNF-α production(IC50). Ex. No. in Table 10 denotes the example No.
Degree of dissociation A=EC50 of gastric acid secretion ability/IC50 of suppression of TNF-α production

C3H/He mouse = assay: Gastric emptying test of mouse (in vivo); details: IC50 (mg/kg) / ED50 (mg/kg)
Description: C3H/He mouse (manufactured by Japan SLC Co., male) fasted for 21 to 24 hours but allowed free access to water, was used as an experimental animal. A desired concentration of the test sample was suspended in 0.5% methyl cellulose solution. The weight of the mouse was measured, and the test compound solution was orally administered at a dosage of 10 mL/kg while only 0.5% methyl cellulose solution was administered to the reference group. One group contained 5 mice. A 1.5% methyl cellulose solution containing 0.05% phenol, red was used as a test meal solution. The test compound was administered, and 0.2 ml of the test meal was orally administered at 60 minutes thereafter. […] A 10% trichloroacetic acid solution (0.5 mL) was added to 5 mL of the supernatant, which was further centrifuged to remove proteins. A solution prepared by adding 125 μL of 2 N NaOH to the supernatant (1 mL) obtained by centrifugation was measured with a spectrophotometer (550 nm), and inhibition of transfer from the stomach to the small intestine was expressed by IC50 (mg/kg).

## CCc1nc(-c2cccs2)nc(Nc2ccc(CC(=O)O)cc2)c1CC [Example 84]
[1]
  Degree of dissociation A: 3

## CCc1nc(-c2ccsc2)nc(Nc2ccc3cc(C(=O)O)ccc3c2)c1CC [Example 59]
[1]
  Degree of dissociation A: 3

## CCc1c(C)nc(-c2ccc(SC)s2)nc1Nc1ccc(CC(=O)O)cc1 [Example 78]
[1]
  Degree of dissociation A: 225

## CCc1nc(-c2ccsc2)nc(Nc2ccc(C(=O)O)cc2)c1CC [Example 57]
[1]
  Degree of dissociation A: 11

## C=CCc1c(CC)nc(-c2ccsc2)nc1Nc1ccc2cc(C(=O)O)ccc2c1 [Example 17]
[1]
  Degree of dissociation A: 71
C3H/He mouse
  gastric emptying IC50 times higher compared with suppression of TNF-α production ED50: 4.7 times

## CCc1nc(-c2cccs2)nc(Nc2ccc(C(=O)O)cc2)c1CC [Example 83]
[1]
  Degree of dissociation A: 4

## CCc1c(C)nc(-c2ccc(Br)s2)nc1Nc1ccc(CC(=O)O)cc1 [Example 148]
[1]
  Degree of dissociation A: 15
C3H/He mouse
  gastric emptying IC50 times higher compared with suppression of TNF-α production ED50: 7.1 times

## CCc1nc(-c2ccsc2)nc(Nc2ccc(CC(=O)O)cc2)c1CC [Example 58]
[1]
  Degree of dissociation A: 2
